Legend:
herring sperm DNA = test: Fluorescence quenching of compound by DNA (Stern-Volmer, binding constant, thermodynamics); conditions: 7f with DNA; for ∆H°: van't Hoff
Description: (§1) The Stern–Volmer equation is the following: F0/F = 1+ KSVc = 1+ […] where F0 and F are the ﬂuorescence intensities in the absence and presence of quencher (DNA for compound 7f or compound 7f for DNA-EB, respectively), KSV is the Stern-Volmer quenching constant, [c] is the concentration of DNA (or compound 7f), Kq is the biomolecule quenching rate constant and Kq = KSV/τ0. τ0 is the average lifetime of the molecule without any quencher and the ﬂuorescence lifetime of the biopolymer is 10^−8 s. The Stern–Volmer plots of F0/F versus [c] at the three temperatures were shown in Figure 9 and Figure 10, and the calculated KSV and Kq values were presented in Table 2 and Table 3.
(§2) When small molecules bind independently to a set of equivalent sites in a macromolecule, the binding constant (Kb) can be determined by the following equation [40, 52]: log[1/c] = log [F/(F0 − F)] + logKb(3) where Kb denotes the binding constant for interaction of naphthalimide–DNA, and F0, F, [c] have the same meanings as in Equation (2).
(§3) There are several acting forces between a small organic molecule and biomacromolecules, such as hydrophobic force, hydrogen bond, van der Waals force, electrostatic interactions, etc.
Preparation of sample is the same as that of UV-Vis measurement. Fluorescence wavelengths and intensity areas of samples were measured at following conditions: EX = 345 nm, EM = 355~600 nm temperature: 298, 303 and 310 K.

herring sperm DNA-EB = test: Fluorescence quenching of DNA-EB complex by compound (EB displacement); type: binding; conditions: 7f with DNA-EB; for ∆H°: van't Hoff
Description: Ethidium bromide (EB) is a well known DNA intercalator, which is often used as a spectral probe to establish the mode of binding of small molecules to double-helical DNA [41]. The ﬂuorescence of EB increases after binding with DNA due to intercalation. Like EB, if naphthalimides intercalate into the helix of DNA, it would compete with EB for its intercalation sites in DNA, and the displacement of EB from the DNA–EB complex leads to a signiﬁcant decrease in the ﬂuorescence intensity of the DNA-EB complex. Therefore, herring sperm DNA-EB complex in the presence of increasing concentrations of naphthalimide-diamine conjugate 7f was also measured.
as §1, §2, §3
Solution of herring sperm DNA (0.3 mL, 2.284 × 10^−5 mol∙L^−1 in Tris-HCl (pH = 7.4) and 0.5 mL EB (1.57 × 10^−5 mol∙L^−1) was mixed with 0.0, 0.10, 0.20, 0.30, 0.60, 0.90 1.20, 1.50, 1.80, 2.10, 2.40, 2.70 and 3.00 mL of compound 7f (2.0 × 10^−4 mol∙L^−1) respectively. The mixture was diluted to 5 mL with Tris-HCl (pH = 7.4). Thus, samples were prepared in the concentration of compound 7f at 0.0, 4.0, 8.0, 12.0, 24.0, 36.0, 48.0, 60.0, 72.0, 84.0, 96.0 and 108.0 and 120.0 × 10^−6 mol∙L^−1. One contained only DNA (13.7 × 10^−6 mol∙L^−1) and EB (15.7 × 10^−6 mol∙L^−1) as control, the others contained different concentration of compound 7f but had the same concentration of DNA and EB. All the above solution was shaken for 30 min. at room temperature. Fluorescence wavelengths and intensity areas of samples were measured at following conditions: EX = 510 nm, EM = 520~800 nm; temperature: 298, 303 and 310 K.

For Cl.Cl.NCCCCNCCCN1C(=O)c2cccc3cccc(c23)C1=O [Compound 7f, 2-[3-(4-Aminobutylamino)propyl]1H-benz-[de]isoquinoline-1,3(2H)-dione dihydrochloride], the “∆G°” value (herring sperm DNA; 298 K) was -5.1573 kcal/mol, the “∆S°” value (herring sperm DNA; 298 K) was -0.00915 kcal/mol and the “∆H°” value (herring sperm DNA; 298 K) was -7.8831 kcal/mol. The “∆G°” value (herring sperm DNA; 303 K) was -5.1116 kcal/mol, the “∆S°” value (herring sperm DNA; 303 K) was -0.00915 kcal/mol and the “∆H°” value (herring sperm DNA; 303 K) was -7.8831 kcal/mol. For the same compound, the “∆G°” value (herring sperm DNA; 310 K) was -5.0201 kcal/mol, the “∆S°” value (herring sperm DNA; 310 K) was -0.00915 kcal/mol and the “∆H°” value (herring sperm DNA; 310 K) was -7.8831 kcal/mol. For the same compound, the “∆G°” value (herring sperm DNA-EB; 298 K) was -5.098 kcal/mol, the “∆S°” value (herring sperm DNA-EB; 298 K) was -0.0304 kcal/mol and the “∆H°” value (herring sperm DNA-EB; 298 K) was -14.156 kcal/mol. The “∆G°” value (herring sperm DNA-EB; 303 K) was -5.0602 kcal/mol, the “∆S°” value (herring sperm DNA-EB; 303 K) was -0.0304 kcal/mol and the “∆H°” value (herring sperm DNA-EB; 303 K) was -14.156 kcal/mol. For the same compound, the “∆G°” value (herring sperm DNA-EB; 310 K) was -5.0459 kcal/mol, the “∆S°” value (herring sperm DNA-EB; 310 K) was -0.0304 kcal/mol and the “∆H°” value (herring sperm DNA-EB; 310 K) was -14.156 kcal/mol.

Source: article PMC6271870, “Study on the Synthesis, Biological Activity and Spectroscopy of Naphthalimide-Diamine Conjugates” (Molecules, 2014)
